Among the data in publication PMC13446905 are binding values, retold here.

The chains behind the UniProt entries cited, without tags or fusion partners.
UniProt Q5S007: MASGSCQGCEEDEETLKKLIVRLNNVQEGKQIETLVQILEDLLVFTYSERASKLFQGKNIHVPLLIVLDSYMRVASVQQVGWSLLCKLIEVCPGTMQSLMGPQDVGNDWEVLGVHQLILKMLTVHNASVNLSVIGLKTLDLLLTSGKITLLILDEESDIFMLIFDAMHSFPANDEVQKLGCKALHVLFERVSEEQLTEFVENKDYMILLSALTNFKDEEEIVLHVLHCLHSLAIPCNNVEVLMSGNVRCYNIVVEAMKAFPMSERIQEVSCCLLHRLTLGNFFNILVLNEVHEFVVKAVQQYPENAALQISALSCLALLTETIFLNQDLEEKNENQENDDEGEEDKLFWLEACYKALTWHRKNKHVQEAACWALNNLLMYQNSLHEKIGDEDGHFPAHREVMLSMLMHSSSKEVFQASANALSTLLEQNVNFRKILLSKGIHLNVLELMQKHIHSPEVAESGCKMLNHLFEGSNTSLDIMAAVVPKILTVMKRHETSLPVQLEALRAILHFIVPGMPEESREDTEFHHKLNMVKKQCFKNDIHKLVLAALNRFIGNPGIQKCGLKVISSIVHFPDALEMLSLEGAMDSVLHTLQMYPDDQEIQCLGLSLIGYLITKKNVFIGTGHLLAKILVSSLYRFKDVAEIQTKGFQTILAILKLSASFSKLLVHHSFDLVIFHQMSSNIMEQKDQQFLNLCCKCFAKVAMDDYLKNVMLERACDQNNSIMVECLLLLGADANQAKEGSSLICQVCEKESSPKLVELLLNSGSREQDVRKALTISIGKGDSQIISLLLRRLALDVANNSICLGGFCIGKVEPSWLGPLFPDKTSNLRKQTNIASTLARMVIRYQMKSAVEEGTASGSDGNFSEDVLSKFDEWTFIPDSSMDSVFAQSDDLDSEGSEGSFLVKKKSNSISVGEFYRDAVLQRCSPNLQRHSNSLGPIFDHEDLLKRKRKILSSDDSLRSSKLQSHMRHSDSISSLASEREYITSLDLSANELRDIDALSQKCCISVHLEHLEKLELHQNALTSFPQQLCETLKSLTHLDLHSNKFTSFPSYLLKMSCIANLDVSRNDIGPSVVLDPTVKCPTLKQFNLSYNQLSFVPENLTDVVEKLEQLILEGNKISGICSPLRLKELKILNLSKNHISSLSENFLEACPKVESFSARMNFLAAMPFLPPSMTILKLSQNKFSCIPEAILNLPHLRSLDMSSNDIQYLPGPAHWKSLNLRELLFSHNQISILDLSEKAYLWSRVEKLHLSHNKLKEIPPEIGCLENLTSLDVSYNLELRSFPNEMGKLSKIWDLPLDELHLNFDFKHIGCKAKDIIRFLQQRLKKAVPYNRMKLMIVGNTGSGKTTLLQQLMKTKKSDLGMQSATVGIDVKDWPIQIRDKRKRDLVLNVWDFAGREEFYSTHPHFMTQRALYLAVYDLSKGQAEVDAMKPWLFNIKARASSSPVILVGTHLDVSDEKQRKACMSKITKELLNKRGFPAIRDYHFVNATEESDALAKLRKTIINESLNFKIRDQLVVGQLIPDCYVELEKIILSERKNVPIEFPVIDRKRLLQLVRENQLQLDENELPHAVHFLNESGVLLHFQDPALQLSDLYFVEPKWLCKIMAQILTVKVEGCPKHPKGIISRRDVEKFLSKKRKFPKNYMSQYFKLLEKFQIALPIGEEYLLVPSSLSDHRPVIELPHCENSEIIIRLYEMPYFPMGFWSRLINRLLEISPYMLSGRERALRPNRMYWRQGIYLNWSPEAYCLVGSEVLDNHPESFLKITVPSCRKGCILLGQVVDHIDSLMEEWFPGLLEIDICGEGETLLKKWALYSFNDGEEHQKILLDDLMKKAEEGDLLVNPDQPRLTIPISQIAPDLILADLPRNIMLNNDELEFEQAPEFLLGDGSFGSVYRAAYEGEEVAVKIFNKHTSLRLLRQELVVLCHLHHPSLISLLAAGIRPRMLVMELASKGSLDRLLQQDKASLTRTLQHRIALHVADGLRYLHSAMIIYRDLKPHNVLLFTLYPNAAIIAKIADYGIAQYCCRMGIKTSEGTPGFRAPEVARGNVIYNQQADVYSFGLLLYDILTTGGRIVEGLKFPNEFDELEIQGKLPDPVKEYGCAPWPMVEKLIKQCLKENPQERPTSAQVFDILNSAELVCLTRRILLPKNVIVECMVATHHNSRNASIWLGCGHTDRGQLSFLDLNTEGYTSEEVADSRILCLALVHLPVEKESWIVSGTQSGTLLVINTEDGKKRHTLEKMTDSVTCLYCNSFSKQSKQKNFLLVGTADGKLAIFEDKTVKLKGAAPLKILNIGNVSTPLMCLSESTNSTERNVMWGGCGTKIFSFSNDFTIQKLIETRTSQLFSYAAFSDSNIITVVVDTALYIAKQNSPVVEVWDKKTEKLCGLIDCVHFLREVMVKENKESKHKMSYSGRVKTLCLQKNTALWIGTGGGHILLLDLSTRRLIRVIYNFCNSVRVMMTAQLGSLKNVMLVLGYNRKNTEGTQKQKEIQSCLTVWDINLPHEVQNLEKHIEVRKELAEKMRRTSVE
UniProt P12814: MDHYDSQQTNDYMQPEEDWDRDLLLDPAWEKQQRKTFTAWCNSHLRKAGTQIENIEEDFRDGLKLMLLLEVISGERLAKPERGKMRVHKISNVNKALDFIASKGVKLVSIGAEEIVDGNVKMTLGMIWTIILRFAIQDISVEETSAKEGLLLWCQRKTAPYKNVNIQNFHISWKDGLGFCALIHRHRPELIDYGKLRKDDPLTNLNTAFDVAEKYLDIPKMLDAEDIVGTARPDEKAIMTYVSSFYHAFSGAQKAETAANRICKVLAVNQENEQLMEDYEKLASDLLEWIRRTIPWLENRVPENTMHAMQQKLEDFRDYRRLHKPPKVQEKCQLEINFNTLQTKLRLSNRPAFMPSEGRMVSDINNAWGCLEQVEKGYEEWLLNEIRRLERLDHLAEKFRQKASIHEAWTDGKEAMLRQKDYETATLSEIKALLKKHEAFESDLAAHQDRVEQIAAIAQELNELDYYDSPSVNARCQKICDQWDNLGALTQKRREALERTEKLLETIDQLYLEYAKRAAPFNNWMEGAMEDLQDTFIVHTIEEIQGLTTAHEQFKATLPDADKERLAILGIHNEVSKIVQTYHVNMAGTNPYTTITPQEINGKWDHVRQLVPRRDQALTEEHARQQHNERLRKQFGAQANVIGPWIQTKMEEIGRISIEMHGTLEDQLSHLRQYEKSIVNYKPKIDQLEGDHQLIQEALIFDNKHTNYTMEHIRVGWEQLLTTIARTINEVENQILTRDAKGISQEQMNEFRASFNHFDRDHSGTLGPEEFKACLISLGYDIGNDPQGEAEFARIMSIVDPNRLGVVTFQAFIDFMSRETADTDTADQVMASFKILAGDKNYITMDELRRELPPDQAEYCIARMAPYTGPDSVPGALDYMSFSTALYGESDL
UniProt P29692: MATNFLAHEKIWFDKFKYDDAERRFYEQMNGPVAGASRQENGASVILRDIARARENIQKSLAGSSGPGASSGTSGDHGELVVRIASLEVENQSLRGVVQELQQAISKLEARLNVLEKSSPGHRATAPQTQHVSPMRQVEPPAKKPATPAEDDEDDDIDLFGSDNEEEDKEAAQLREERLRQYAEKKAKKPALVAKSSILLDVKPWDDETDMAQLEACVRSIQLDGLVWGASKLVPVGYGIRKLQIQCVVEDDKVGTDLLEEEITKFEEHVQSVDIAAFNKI
UniProt P21333: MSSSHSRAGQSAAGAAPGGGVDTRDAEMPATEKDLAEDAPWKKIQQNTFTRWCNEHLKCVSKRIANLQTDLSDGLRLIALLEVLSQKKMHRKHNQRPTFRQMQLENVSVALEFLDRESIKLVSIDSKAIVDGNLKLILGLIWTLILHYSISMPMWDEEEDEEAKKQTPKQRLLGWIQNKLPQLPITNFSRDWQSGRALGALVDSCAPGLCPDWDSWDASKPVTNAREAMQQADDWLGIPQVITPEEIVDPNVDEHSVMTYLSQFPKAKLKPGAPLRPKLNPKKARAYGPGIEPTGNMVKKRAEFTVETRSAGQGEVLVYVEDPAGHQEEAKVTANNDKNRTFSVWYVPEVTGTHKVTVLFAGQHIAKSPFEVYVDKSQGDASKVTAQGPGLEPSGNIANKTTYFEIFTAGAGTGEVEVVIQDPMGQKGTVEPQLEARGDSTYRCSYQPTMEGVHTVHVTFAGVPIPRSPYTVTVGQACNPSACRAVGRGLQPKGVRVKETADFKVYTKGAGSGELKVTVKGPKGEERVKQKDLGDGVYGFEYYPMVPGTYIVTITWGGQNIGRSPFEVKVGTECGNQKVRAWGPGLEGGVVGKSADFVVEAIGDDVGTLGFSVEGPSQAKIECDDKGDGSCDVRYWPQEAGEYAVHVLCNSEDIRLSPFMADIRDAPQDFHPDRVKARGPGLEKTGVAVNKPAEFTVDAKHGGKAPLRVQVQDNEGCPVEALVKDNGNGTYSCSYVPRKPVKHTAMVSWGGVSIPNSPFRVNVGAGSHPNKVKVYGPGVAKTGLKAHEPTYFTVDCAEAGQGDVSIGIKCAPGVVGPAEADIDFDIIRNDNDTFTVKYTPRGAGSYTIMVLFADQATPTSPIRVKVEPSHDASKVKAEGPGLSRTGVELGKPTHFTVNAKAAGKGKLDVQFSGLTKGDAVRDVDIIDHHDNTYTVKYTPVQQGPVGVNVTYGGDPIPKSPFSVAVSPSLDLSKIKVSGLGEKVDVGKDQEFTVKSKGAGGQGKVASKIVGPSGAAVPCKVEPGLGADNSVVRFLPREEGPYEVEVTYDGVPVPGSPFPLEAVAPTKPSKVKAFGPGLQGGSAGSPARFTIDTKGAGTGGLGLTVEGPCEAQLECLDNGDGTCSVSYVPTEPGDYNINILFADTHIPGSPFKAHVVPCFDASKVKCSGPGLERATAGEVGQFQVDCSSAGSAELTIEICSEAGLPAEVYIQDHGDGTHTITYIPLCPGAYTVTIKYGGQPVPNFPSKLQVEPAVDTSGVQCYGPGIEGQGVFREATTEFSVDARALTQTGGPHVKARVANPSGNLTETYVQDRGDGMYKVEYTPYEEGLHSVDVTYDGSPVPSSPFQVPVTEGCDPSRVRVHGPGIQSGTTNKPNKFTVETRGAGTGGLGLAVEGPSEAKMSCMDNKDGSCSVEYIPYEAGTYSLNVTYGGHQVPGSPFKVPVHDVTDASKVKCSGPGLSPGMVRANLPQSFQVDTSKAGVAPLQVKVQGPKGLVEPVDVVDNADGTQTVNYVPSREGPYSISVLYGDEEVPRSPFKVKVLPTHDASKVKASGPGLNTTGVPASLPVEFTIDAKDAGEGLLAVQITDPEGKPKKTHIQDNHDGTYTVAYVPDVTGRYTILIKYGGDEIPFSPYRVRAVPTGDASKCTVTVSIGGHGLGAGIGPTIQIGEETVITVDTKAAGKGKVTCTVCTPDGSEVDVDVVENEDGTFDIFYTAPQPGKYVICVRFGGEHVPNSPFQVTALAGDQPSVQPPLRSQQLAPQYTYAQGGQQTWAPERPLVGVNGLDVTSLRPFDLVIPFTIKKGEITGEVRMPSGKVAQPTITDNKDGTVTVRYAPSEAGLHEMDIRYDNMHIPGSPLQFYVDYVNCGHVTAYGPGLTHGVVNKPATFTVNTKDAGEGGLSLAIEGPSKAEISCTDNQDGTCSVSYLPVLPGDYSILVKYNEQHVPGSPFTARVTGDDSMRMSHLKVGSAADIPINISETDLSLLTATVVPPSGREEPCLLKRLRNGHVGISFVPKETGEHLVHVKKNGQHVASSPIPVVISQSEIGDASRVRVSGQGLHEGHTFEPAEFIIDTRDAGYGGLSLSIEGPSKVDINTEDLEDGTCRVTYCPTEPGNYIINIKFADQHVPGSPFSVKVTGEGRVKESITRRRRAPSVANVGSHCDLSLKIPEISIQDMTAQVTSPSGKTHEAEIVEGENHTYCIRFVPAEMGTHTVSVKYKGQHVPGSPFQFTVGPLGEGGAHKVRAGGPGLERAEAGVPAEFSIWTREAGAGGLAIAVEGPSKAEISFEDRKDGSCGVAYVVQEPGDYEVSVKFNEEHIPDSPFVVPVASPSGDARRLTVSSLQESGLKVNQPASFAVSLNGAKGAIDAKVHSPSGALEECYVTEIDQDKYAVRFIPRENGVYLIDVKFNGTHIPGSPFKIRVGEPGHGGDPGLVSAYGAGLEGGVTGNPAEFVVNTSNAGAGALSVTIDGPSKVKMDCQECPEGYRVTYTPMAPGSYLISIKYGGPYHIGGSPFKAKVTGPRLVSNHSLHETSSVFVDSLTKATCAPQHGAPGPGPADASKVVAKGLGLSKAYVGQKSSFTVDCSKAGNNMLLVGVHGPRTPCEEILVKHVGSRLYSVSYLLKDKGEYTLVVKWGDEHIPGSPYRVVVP
UniProt P23528: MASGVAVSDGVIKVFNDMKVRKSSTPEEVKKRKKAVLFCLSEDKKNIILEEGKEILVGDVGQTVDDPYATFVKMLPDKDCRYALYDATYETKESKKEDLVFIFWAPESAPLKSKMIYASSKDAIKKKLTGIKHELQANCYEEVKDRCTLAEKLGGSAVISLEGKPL

Results are given in words; binding and its absence hold for the method and conditions named. In cells and extracts the contact can be indirect. A yes stands for co-enrichment or nearness to the bait. Other partners may have been found.

The target of the experiment is GFP-LRRK2 wild-type (UniProt Q5S007). As to the kind of experiment: affinity purification with mass spectrometry; GFP-TrapA beads, overnight at 4 °C, lysates of RA-differentiated SH-SY5Y cells stably expressing GFP-LRRK2 (or GFP control), unstimulated or stimulated with 100 ng/mL BDNF for 15 min; lysis buffer 20 mM Tris-HCl pH 7.5, 150 mM NaCl, 1 mM EDTA, 1% Tween 20; ten washes; LC-MS/MS.

In the case of PCBP1 (from UniProt Q15365 1-356), the binding result is recorded as “binds”. The same measure for ACTN1 (from UniProt P12814 1-892): “binds”. The same measure for Eef1d (from UniProt P29692 1-281): “binds”; for FLNA (from UniProt P21333 1-2647): “binds”; for drebrin (from UniProt Q16643 1-649): “binds”. CFL1 (from UniProt P23528 1-166): the binding entry is reported as “binds”.

As to EEF1A2 (from UniProt Q05639 1-463), the binding result is reported as “binds”.
